# Measured values as given in the supplement of paper PMC8728848.
# The other results are listed elsewhere or left out.
# Assays:
# Assay in all cases: glycan array binding signal (z-score within array); higher = stronger binding
# Conditions in all cases: glycan notation: IUPAC condensed, linker removed
# [1] = molecular target: Gal(b1-3)GlcNAc(b1-6)[Gal(b1-3)]GalNAc
# Method in brief: (§1)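 Negative Z-scores can be read as non-binding. The Z-score is calculated within each array and then averaged across arrays of one protein sequence at different concentrations or buffers and across linkers. Arrays, 3228 in all, were curated from the Consortium for Functional Glycomics database and kept only where the protein sequence was available.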
# Gal(b1-3)GlcNAc6S = molecular target: Gal(b1-3)GlcNAc6S
# Method in brief: as §1
# [2] = molecular target: Gal(b1-3)[Fuc(a1-4)]GlcNAc
# Method in brief: as §1
# [3] = molecular target: Gal(b1-3)[Fuc(a1-4)]GlcNAc(b1-2)Man
# Method in brief: as §1
# [4] = molecular target: Gal(b1-3)[Fuc(a1-4)]GlcNAc(b1-2)Man(a1-3)[Gal(b1-3)[Fuc(a1-4)]GlcNAc(b1-2)Man(a1-6)]Man(b1-4)GlcNAc(b1-4)[Fuc(a1-6)]GlcNAc
# Method in brief: as §1
# [5] = molecular target: Gal(b1-3)[Fuc(a1-4)]GlcNAc(b1-3)Gal(b1-3)[Fuc(a1-4)]GlcNAc
# Method in brief: as §1
# [6] = molecular target: Gal(b1-3)[Fuc(a1-4)]GlcNAc(b1-3)Gal(b1-4)[Fuc(a1-3)]GlcNAc
# Method in brief: as §1
# [7] = molecular target: Gal(b1-3)[Fuc(a1-4)]GlcNAc(b1-6)GalNAc
# Method in brief: as §1
# [8] = molecular target: Gal(b1-3)[GlcNAc(b1-6)]GalNAc
# Method in brief: as §1
# [9] = molecular target: Gal(b1-3)[Neu5Ac(a2-6)]GalNAc
# Method in brief: as §1
# [10] = molecular target: Gal(b1-3)[Neu5Ac(a2-6)]GlcNAc(b1-4)Gal(b1-4)Glc
# Method in brief: as §1
# [11] = molecular target: Gal(b1-3)[Neu5Ac(b2-6)]GalNAc
# Method in brief: as §1
# Gal(b1-4)Gal = molecular target: Gal(b1-4)Gal
# Method in brief: as §1
# [12] = molecular target: Gal(b1-4)GalNAc(a1-3)[Fuc(a1-2)]Gal(b1-4)GlcNAc
# Method in brief: as §1
# [13] = molecular target: Gal(b1-4)GalNAc(b1-3)[Fuc(a1-2)]Gal(b1-4)GlcNAc
# Method in brief: as §1
# Gal(b1-4)Glc = molecular target: Gal(b1-4)Glc
# Method in brief: as §1
# Gal(b1-4)Glc6S = molecular target: Gal(b1-4)Glc6S
# Method in brief: as §1
# Gal(b1-4)GlcNAc = molecular target: Gal(b1-4)GlcNAc
# Method in brief: as §1
# [14] = molecular target: Gal(b1-4)GlcNAc(a1-6)Gal(b1-4)GlcNAc
# Method in brief: as §1
# Gal(b1-4)GlcNAc(b1-2)Man = molecular target: Gal(b1-4)GlcNAc(b1-2)Man
# Method in brief: as §1
# [15] = molecular target: Gal(b1-4)GlcNAc(b1-2)Man(a1-3)Man(b1-4)GlcNAc(b1-4)GlcNAc
# Method in brief: as §1
# [16] = molecular target: Gal(b1-4)GlcNAc(b1-2)Man(a1-3)[Gal(b1-4)GlcNAc(b1-2)Man(a1-6)]Man(b1-4)GlcNAc(b1-4)GlcNAc
# Method in brief: as §1
# [17] = molecular target: Gal(b1-4)GlcNAc(b1-2)Man(a1-3)[Gal(b1-4)GlcNAc(b1-2)Man(a1-6)]Man(b1-4)GlcNAc(b1-4)[Fuc(a1-6)]GlcNAc
# Method in brief: as §1
# [18] = molecular target: Gal(b1-4)GlcNAc(b1-2)Man(a1-3)[Gal(b1-4)GlcNAc(b1-2)Man(a1-6)][Gal(b1-4)GlcNAc(b1-4)]Man(b1-4)GlcNAc(b1-4)[Fuc(a1-6)]GlcNAc
# Method in brief: as §1
# [19] = molecular target: Gal(b1-4)GlcNAc(b1-2)Man(a1-3)[Gal(b1-4)GlcNAc(b1-2)Man(a1-6)][GlcNAc(b1-4)]Man(b1-4)GlcNAc(b1-4)[Fuc(a1-6)]GlcNAc
# Method in brief: as §1
# [20] = molecular target: Gal(b1-4)GlcNAc(b1-2)Man(a1-3)[GlcNAc(b1-2)Man(a1-6)]Man(b1-4)GlcNAc(b1-4)GlcNAc
# Method in brief: as §1
# [21] = molecular target: Gal(b1-4)GlcNAc(b1-2)Man(a1-3)[GlcNAc(b1-4)][Gal(b1-4)GlcNAc(b1-2)Man(a1-6)]Man(b1-4)GlcNAc(b1-4)GlcNAc
# Method in brief: as §1
# [22] = molecular target: Gal(b1-4)GlcNAc(b1-2)Man(a1-3)[Man(a1-6)]Man(b1-4)GlcNAc(b1-4)GlcNAc
# Method in brief: as §1
# [23] = molecular target: Gal(b1-4)GlcNAc(b1-2)Man(a1-6)Man(b1-4)GlcNAc(b1-4)GlcNAc
# Method in brief: as §1
# [24] = molecular target: Gal(b1-4)GlcNAc(b1-2)Man(a1-6)[GlcNAc(b1-2)Man(a1-3)]Man(b1-4)GlcNAc(b1-4)GlcNAc
# Method in brief: as §1
# [25] = molecular target: Gal(b1-4)GlcNAc(b1-2)Man(a1-6)[Man(a1-3)]Man(b1-4)GlcNAc(b1-4)GlcNAc
# Method in brief: as §1
# [26] = molecular target: Gal(b1-4)GlcNAc(b1-2)[Gal(b1-4)GlcNAc(b1-4)]Man(a1-3)[Gal(b1-4)GlcNAc(b1-2)Man(a1-6)]Man(b1-4)GlcNAc(b1-4)GlcNAc
# Method in brief: as §1
# [27] = molecular target: Gal(b1-4)GlcNAc(b1-2)[Gal(b1-4)GlcNAc(b1-4)]Man(a1-3)[Gal(b1-4)GlcNAc(b1-2)[Gal(b1-4)GlcNAc(b1-6)]Man(a1-6)]Man(b1-4)GlcNAc(b1-4)GlcNAc
# Method in brief: as §1
# [28] = molecular target: Gal(b1-4)GlcNAc(b1-2)[Gal(b1-4)GlcNAc(b1-4)]Man(a1-3)[GlcNAc(b1-4)][Gal(b1-4)GlcNAc(b1-2)Man(a1-6)]Man(b1-4)GlcNAc(b1-4)GlcNAc
# Method in brief: as §1
# [29] = molecular target: Gal(b1-4)GlcNAc(b1-2)[Gal(b1-4)GlcNAc(b1-4)]Man(a1-3)[GlcNAc(b1-4)][Gal(b1-4)GlcNAc(b1-2)[Gal(b1-4)GlcNAc(b1-6)]Man(a1-6)]Man(b1-4)GlcNAc(b1-4)GlcNAc
# Method in brief: as §1
# [30] = molecular target: Gal(b1-4)GlcNAc(b1-2)[Gal(b1-4)GlcNAc(b1-6)]Man(a1-6)[Gal(b1-4)GlcNAc(b1-2)Man(a1-3)]Man(b1-4)GlcNAc(b1-4)GlcNAc
# Method in brief: as §1
# [31] = molecular target: Gal(b1-4)GlcNAc(b1-2)[Gal(b1-4)GlcNAc(b1-6)]Man(a1-6)[Gal(b1-4)GlcNAc(b1-2)Man(a1-3)]Man(b1-4)GlcNAc(b1-4)[Fuc(a1-6)]GlcNAc
# Method in brief: as §1
# [32] = molecular target: Gal(b1-4)GlcNAc(b1-2)[Gal(b1-4)GlcNAc(b1-6)]Man(a1-6)[GlcNAc(b1-4)][Gal(b1-4)GlcNAc(b1-2)Man(a1-3)]Man(b1-4)GlcNAc(b1-4)GlcNAc
# Method in brief: as §1
# [33] = molecular target: Gal(b1-4)GlcNAc(b1-2)[Gal(b1-4)GlcNAc(b1-6)]Man(a1-6)[GlcNAc(b1-4)][Gal(b1-4)GlcNAc(b1-2)[Gal(b1-4)GlcNAc(b1-4)]Man(a1-3)]Man(b1-4)GlcNAc(b1-4)[Fuc(a1-6)]GlcNAc
# Method in brief: as §1
# [34] = molecular target: Gal(b1-4)GlcNAc(b1-3)Gal(b1-3)GalNAc
# Method in brief: as §1
# [35] = molecular target: Gal(b1-4)GlcNAc(b1-3)Gal(b1-3)GlcNAc
# Method in brief: as §1
# [36] = molecular target: Gal(b1-4)GlcNAc(b1-3)Gal(b1-4)Glc
# Method in brief: as §1
# [37] = molecular target: Gal(b1-4)GlcNAc(b1-3)Gal(b1-4)GlcNAc
# Method in brief: as §1
# [38] = molecular target: Gal(b1-4)GlcNAc(b1-3)Gal(b1-4)GlcNAc(b1-2)Man(a1-3)[Gal(b1-4)GlcNAc(b1-3)Gal(b1-4)GlcNAc(b1-2)Man(a1-6)]Man(b1-4)GlcNAc(b1-4)GlcNAc
# Method in brief: as §1
# [39] = molecular target: Gal(b1-4)GlcNAc(b1-3)Gal(b1-4)GlcNAc(b1-2)Man(a1-3)[Gal(b1-4)GlcNAc(b1-3)Gal(b1-4)GlcNAc(b1-2)Man(a1-6)]Man(b1-4)GlcNAc(b1-4)[Fuc(a1-6)]GlcNAc
# Method in brief: as §1
binder,measurement,setting,value
Pwp6 (Candida glabrata) (protein) MGSSHHHHHHSSGLVPRGSHMASANLPKLTNICQIPDNVKKTSGFKGEIRRIGLFPPGGDYTYLLKFPSTGSTASDTISLTTKPQLSTSGWFPSLFGHTYFIKADLLVYMVAYFVPTETGEYTFKLVNSDDAAVMYVGNPSAFPCGSIDTWPEPRKEDINVCDKISASTKLYMEKGLAYPVRLVWYNGGGDGQFNAQFIDPSGTTHTDWNGYVWQYDACTDCDYK,glycan array binding signal (z-score),[1],-0.167
same,glycan array binding signal (z-score),Gal(b1-3)GlcNAc6S,-0.52
same,glycan array binding signal (z-score),[2],-0.676
same,glycan array binding signal (z-score),[3],-0.152
same,glycan array binding signal (z-score),[4],-0.018
same,glycan array binding signal (z-score),[5],0.836
same,glycan array binding signal (z-score),[6],-0.441
same,glycan array binding signal (z-score),[7],1.75
same,glycan array binding signal (z-score),[8],-0.459
same,glycan array binding signal (z-score),[9],0.134
same,glycan array binding signal (z-score),[10],-0.455
same,glycan array binding signal (z-score),[11],-0.465
same,glycan array binding signal (z-score),Gal(b1-4)Gal,-0.05
same,glycan array binding signal (z-score),[12],-0.17
same,glycan array binding signal (z-score),[13],-0.651
same,glycan array binding signal (z-score),Gal(b1-4)Glc,-0.681
same,glycan array binding signal (z-score),Gal(b1-4)Glc6S,-0.582
same,glycan array binding signal (z-score),Gal(b1-4)GlcNAc,-0.877
same,glycan array binding signal (z-score),[14],-0.631
same,glycan array binding signal (z-score),Gal(b1-4)GlcNAc(b1-2)Man,-0.45
same,glycan array binding signal (z-score),[15],0.112
same,glycan array binding signal (z-score),[16],0.039
same,glycan array binding signal (z-score),[17],-0.089
same,glycan array binding signal (z-score),[18],-0.334
same,glycan array binding signal (z-score),[19],-0.658
same,glycan array binding signal (z-score),[20],0.404
same,glycan array binding signal (z-score),[21],-0.367
same,glycan array binding signal (z-score),[22],0.558
same,glycan array binding signal (z-score),[23],-0.002
same,glycan array binding signal (z-score),[24],0.606
same,glycan array binding signal (z-score),[25],0.482
same,glycan array binding signal (z-score),[26],-0.368
same,glycan array binding signal (z-score),[27],-0.621
same,glycan array binding signal (z-score),[28],-0.32
same,glycan array binding signal (z-score),[29],0.511
same,glycan array binding signal (z-score),[30],-0.132
same,glycan array binding signal (z-score),[31],-0.081
same,glycan array binding signal (z-score),[32],-0.337
same,glycan array binding signal (z-score),[33],-0.37
same,glycan array binding signal (z-score),[34],0.091
same,glycan array binding signal (z-score),[35],-0.355
same,glycan array binding signal (z-score),[36],-0.186
same,glycan array binding signal (z-score),[37],-0.38
same,glycan array binding signal (z-score),[38],2.96
same,glycan array binding signal (z-score),[39],1.1

# Taken from the listing for reference:
binder,measurement,setting,value
Pwp6 (Candida glabrata) (protein) MGSSHHHHHHSSGLVPRGSHMASANLPKLTNICQIPDNVKKTSGFKGEIRRIGLFPPGGDYTYLLKFPSTGSTASDTISLTTKPQLSTSGWFPSLFGHTYFIKADLLVYMVAYFVPTETGEYTFKLVNSDDAAVMYVGNPSAFPCGSIDTWPEPRKEDINVCDKISASTKLYMEKGLAYPVRLVWYNGGGDGQFNAQFIDPSGTTHTDWNGYVWQYDACTDCDYK,glycan array binding signal (z-score),[15],0.112
same,glycan array binding signal (z-score),[16],0.039
